According to PubChem BioAssay AID1347426 (Functional Genomics Laboratory (NCATS/FGL), 2020):
Screen size: about 31,000 sequences; about 1,400 (4.5%) were called active.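 The calls were made as follows: active = median seed-adjusted z-score above 1 or below -1; inactive = the rest.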 This is one part of the list.

Experiment: Novel Modifiers of Survival Motor Neuron (SMN) Protein: Gene Identification via Genome-wide siRNA Screen;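 also: luminescence tracks full-length SMN protein made from the SMN2 reporter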
Details: HEK293T SMN2-luciferase reporter, siRNA knockdown, 72 h; actives lie on both sides
In short: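 Genome-wide siRNA screen (10418 genes, 3 siRNAs each, 1 pmol per well) by reverse transfection in HEK293T cells stably carrying an SMN2-luciferase reporter; luminescence after 72 hours, normalized to negative-control siRNA, log10-transformed, MAD-scored.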

| Sequence | median seed-adjusted z-score |
| --- | --- |
| AGAUAGAGGUCACCAGUGATT against PPP1R3F | inactive: 0.781 |
| ACACUGUACUCUCCAAUAATT against PLA2G1B | inactive: -0.411 |
| GGCUGUAUCACAUCGGUUATT against CCR2 | inactive: -0.00107 |
| UCAGGGCUCUGUUGCAAGATT against TESK1 | inactive: 0.384 |
| GACCCUUGGAAAUUGCUGATT against RNF26 | inactive: 0.359 |
| CUCGGGUCCUGAAAUCUUATT against MLC1 | inactive: -0.284 |
| AGACGGCGGUGGAACCAAATT against IL2RB | inactive: 0.333 |
| GACCCUAGCUUUAAGAGAATT against TGFA | inactive: -0.22 |
| GGUCAUCCGCAAACGGAAATT against CARD9 | inactive: -0.325 |
| GCAUUGUCUGUGAACAAGATT against TRIP4 | inactive: -0.0385 |
| CAGGUAUAUCAAUUUUUCATT against PRICKLE3 | inactive: 0.0332 |
| CAUAUGCCCUCUUCAAUCATT against ZBTB33 | inactive: 0.164 |
| UGGUCGUUAUGGUCCUAUATT against FUSIP1 | inactive: 0.865 |
| CCCUGAACAUCUACCAGAATT against PDE6B | inactive: -0.336 |
| GAUUACCGUUUAUUCCAUATT against GSPT1 | inactive: -0.761 |
| GGAAGGAUCAAACUACAAATT against AATF | inactive: 0.182 |
| ACACGUUGGAAGUAGCUGATT against OTUD4 | inactive: 0.167 |
| GGCUCAAGUUUGCCCGGAATT against KCNQ2 | inactive: 0.0368 |
| CGUUUAGAGGGCUACCAGATT against ARHGEF11 | inactive: -0.525 |
| GCAUCCCUACGGUUGUUGATT against EIF2B4 | inactive: 0 |
| GCUCAGGCAUUGUUGGAAATT against VBP1 | inactive: 0.317 |
| GCAGUAGAAGUAUCCGGGATT against THSD4 | inactive: 0.0657 |

| Sequence | median seed-adjusted z-score |
| --- | --- |
| CGUGAUGAGUGAUUAUAGATT against SAT1 | inactive: -0.00791 |
| CAAGAUUCUUGACCUUGAATT against PDP2 | inactive: -0.0726 |
| GAACAACUCGGACAAGGAUTT against LMNB2 | inactive: -0.15 |
| GUAUCAAGCUCAUCACCGATT against IDH3A | inactive: 0.137 |
| AGAGGCUGCGGUUCAAAGATT against PTP4A3 | inactive: 0.354 |
| GGUGCUGACCGACAAAGAATT against TNFAIP1 | inactive: 0.0766 |
| GCAGGUUGUAAAUAGUGUATT against CCNO | inactive: -0.594 |
| GACCUCACGUUGUCGAAGATT against GTPBP4 | active: 1.01 |
| GAAGAGCAUUAAAAGCAUUTT against CARHSP1 | inactive: 0.384 |
| CGAAAGGGACGAUGACUAUTT against THBS1 | inactive: -0.847 |
| GAGGAGUUCUGUUACGAGATT against DOC2B | inactive: -0.423 |
| CUUUCUAGCAGUCACCAUATT against CIR | inactive: -0.197 |
| GAAGGGCGAUUACGAUGUATT against PTPN14 | inactive: 0 |
| GAAUAUUCACAGAGCGAUUTT against HOXB4 | inactive: 0.149 |
| CGACUGUUGUGAGCCCAAUTT against SRCRB4D | inactive: -0.0568 |
| GCAGGGUCAUUACGACUCATT against PAX9 | active: -1.16 |
| CAAGUUCCUUAACAAGGAATT against EIF2B4 | inactive: 0 |
| CCUUCCGAGUUAUUGGAUATT against DGKI | inactive: -0.417 |
| AAUCAGAUCAAAAACAUAATT against TNFRSF10C | inactive: 0 |
| GAGUCUAAGCUUUUCGAGATT against CAMK1G | inactive: -0.358 |
| GGAGAUUACCUUACGGAAATT against ROCK2 | inactive: -0.149 |
| CAAGGGAGCGUGAACUUUATT against ASCL2 | inactive: -0.249 |

| Sequence | median seed-adjusted z-score |
| --- | --- |
| CCUGUGCUGUUAUGAAGCUTT against APC2 | inactive: 0.00354 |
| GGCCGAGAGUUUUACAUGATT against PARS2 | inactive: -0.433 |
| GGAAGCGAAUACUACUAUUTT against ST6GALNAC3 | inactive: -0.205 |
| CCAACACUAUUGUUGCGCUTT against SLC34A2 | inactive: 0 |
| GGCUGUUGAAGAAAGCGUATT against SLC18A1 | inactive: 0.0986 |
| GGCCUACAGUUGUCGUUCATT against ZNF555 | inactive: 0.141 |
| GGUUCCAUCUCGAUUGAUUTT against GPR20 | inactive: 0.442 |
| GCAGGUUCCUUAUCUGUCATT against BIRC5 | inactive: 0.0236 |
| CGACAUCAUAUUUAAGGAUTT against SHH | inactive: -0.517 |
| GCAUCUUGGAGUCAAGGGATT against RGS12 | inactive: 0.404 |
| CCAUGUCCUUCUUCAACUUTT against RGR | inactive: 0.217 |
| CAUCCAGAGUCAUAGUACATT against POLI | inactive: 0.857 |
| GAGUUUGACUCAGAUAUAUTT against STX17 | inactive: 0.00965 |
| GGACUGUCCAAACAACCGATT against CA10 | inactive: 0.255 |
| UGACGGUGCUGGAAACAUGTT against GGA1 | inactive: 0.172 |
| GGUUAGAAAUCAUCAACGATT against NTRK2 | inactive: 0.103 |
| GGACCUGCGGAACCAGAUUTT against ADCK4 | inactive: -0.181 |
| CUUUCUCUAUAUCACCUUUTT against SLC39A1 | inactive: 0.658 |
| ACAACAUCGCAAUCACAUATT against LOC442229 | inactive: 0.183 |
| CAGACUAUCUUUUCAGUAATT against MEGF9 | inactive: -0.0893 |
| GGCUGUAUCCAUUACGUCATT against ACACA | inactive: 0.00665 |
| CCAAAUGACUGGUCAAGAUTT against HS3ST4 | inactive: 0.284 |

| Sequence | median seed-adjusted z-score |
| --- | --- |
| GGAUGUGACGAGCCCAGAATT against GRHPR | inactive: 0.475 |
| CCUCAGUACUCAUCAGAGATT against ZNF510 | inactive: 0.28 |
| GUUCCGAAGUGGUCUCAUUTT against MINPP1 | inactive: -0.0107 |
| CAUUAUUGCUGGUAUAACUTT against ACSL3 | inactive: 0 |
| GAGGGACCCUUAUCAGACATT against ELA1 | inactive: 0.687 |
| CAGACAUACUUUUUACUCATT against LRRC19 | inactive: -0.062 |
| GGUAAGGCCUUAUAAUGUATT against KHK | inactive: 0 |
| GAAGCUCUGCUAAUAGGUATT against ENOX1 | inactive: 0.0694 |
| CACUCAGAGAUGUACAGUUTT against RRM2B | inactive: -0.128 |
| AGGGACUUGUACAGCAAAATT against APOC2 | inactive: -0.0599 |
| GGACAAUGUUGGGAAUAGATT against GPATCH2 | inactive: 0.0828 |
| GGACAACAAAUGGGAAUAATT against GLP2R | inactive: 0.492 |
| GGCACAUUCUGGAGAGCGATT against MAFA | inactive: 0.424 |
| CCCUCACAGUUCACAUUCATT against WFDC1 | inactive: 0.152 |
| GUCUAGGAGACAUUCAUUUTT against ACSM2B | inactive: -0.0401 |
| GGAAUUGUAUGGAGACAUUTT against PTGS1 | inactive: 0.0458 |
| CACCAAAACCUGAACCCAATT against HMGN3 | inactive: -0.182 |
| CAGCCUAUGUGACGGGCUATT against HAS3 | inactive: -0.179 |
| GCAGAUCCACAUGAACAAATT against HDAC9 | inactive: -0.135 |
| GCAUCAAUCGCACCAAGUATT against GPR123 | inactive: 0 |
| GGCUGGACAAUAUCAUUGATT against STAT3 | inactive: 0 |
| CCAUGUAAGCUGUUGGUUUTT against ZNF343 | inactive: 0.0696 |

2 records picked at random from those above:

| Sequence | median seed-adjusted z-score |
| --- | --- |
| GGAAGGAUCAAACUACAAATT against AATF | inactive: 0.182 |
| GGCACAUUCUGGAGAGCGATT against MAFA | inactive: 0.424 |

Further entries.

| Sequence | median seed-adjusted z-score |
| --- | --- |
| UGAAUGCCUUUUUCUCUGATT against RHOG | inactive: -0.354 |
| GUACGUCCAUUUCCCUAAATT against NLRP11 | inactive: 0.181 |
| GAACCAACCUGAAUAUUGATT against PJA1 | inactive: -0.275 |
| GAAGCUGUCGGACUACAAATT against PRDX2 | inactive: -0.359 |
| CCAAGAUUGUCACUCUGGATT against E2F7 | inactive: -0.0972 |
| CAAAAGUAUUCUUAGGAAATT against SLC25A15 | inactive: -0.0116 |
| CCGGGAAUCCUAAUGGGAATT against CES7 | inactive: -0.374 |
| GCCGAUUAGUCUAGAAGUATT against SYNM | inactive: 0.104 |
| GGAGAGCUGUAUAAGAGCUTT against ENO3 | inactive: -0.142 |
| GGAAAUCGAUAAUGACUAUTT against FAT2 | inactive: -0.286 |
| GGCAUCCGCAUGUACCAGATT against LRFN3 | inactive: 0.483 |
| GAAUAGCCUUUUAUCGUUUTT against TLR5 | inactive: 0 |
| GGAUGACGAUAAGUCGGAATT against CHD7 | inactive: 0.138 |
| GGACGAAGACUGGUAUAUATT against EHF | inactive: 0.581 |
| CCUCUAACCUUAUUGGAUATT against ZNF10 | inactive: 0 |
| CACGCUAUCUGAUCUUAAATT against PPP2R5E | inactive: 0.421 |
| AGAUCGUCAAGGAUAUCCATT against CAV3 | inactive: 0 |
| CUUCCGUUAUGAUACAGAATT against GABRA2 | inactive: -0.272 |
| GUGUCUUCCUGCAAUAUGATT against FMNL1 | inactive: -0.3 |
| CUAUCAUGGAAGAUGCUGATT against B3GNT4 | inactive: 0.124 |

As entered above:
Value of CUUCCGUUAUGAUACAGAATT against GABRA2 under median seed-adjusted z-score: inactive: -0.272
Value of CCAAGAUUGUCACUCUGGATT against E2F7 under median seed-adjusted z-score: inactive: -0.0972
Value of GGCAUCCGCAUGUACCAGATT against LRFN3 under median seed-adjusted z-score: inactive: 0.483
Value of GAAGCUGUCGGACUACAAATT against PRDX2 under median seed-adjusted z-score: inactive: -0.359
